Measurements reported in the supplement of paper PMC6414424.
Structures can show the parent of a compound that is named as a salt. ± gives the standard deviation of the averaged measurements. The list shows a part of the results.

These compounds were tested on APPdp1-6 iPSC-derived neurons (assay: pThr231Tau/total Tau ratio Z-score vs DMSO vehicle wells; higher = more pThr231Tau relative to total Tau). Settings: 5 µM; treatment time 5 days.

| Structure (SMILES) | pThr231Tau/total Tau ratio Z-score |
| --- | --- |
| COC(=O)C(c1ccccc1)C1CCCCN1 (stereo not drawn) [METHYLPHENIDATE HYDROCHLORIDE, CNS stimulant] | -0.198 ± 1.1 |
| CC(=O)OCC1=C(C(=O)O)N2C(=O)[C@@H](N)[C@H]2SC1 [Prestw-424] | -1.1 ± 0.096 |
| CO[C@]12C[C@@H](COC(=O)c3cncc(Br)c3)CN(C)[C@@H]1Cc1cn(C)c3cccc2c13 [Prestw-147] | -0.553 ± 0.56 |
| CN(C)C(=S)SSC(=S)N(C)C [THIRAM    Therap cat: antifungal] | 0.139 ± 1.4 |
| CC(C)C[C@H](CN)CC(=O)O [PREGABALIN, anticonvulsant] | 1.5 ± 1.4 |
| CC(C)(C)NCC(O)c1ccccc1Cl (stereo not drawn) [Prestw-1352] | 0.149 ± 0.027 |
| C[C@]12Cc3c[nH]nc3C[C@@H]1CC[C@@H]1[C@@H]2CC[C@@]2(C)[C@H]1CC[C@]2(C)O [Prestw-1161] | 0.971 ± 1.2 |
| NC(=O)CN1CCCC1=O [Prestw-537] | -1 ± 1.7 |
| O=P1(NCCCl)OCCCN1CCCl (stereo not drawn) [Prestw-833] | -0.588 ± 1.1 |
| CC(C)c1c(CN(C)C(C)Cc2ccccc2)n(C)n(-c2ccccc2)c1=O (stereo not drawn) [Prestw-703] | -0.881 ± 0.071 |
| Oc1ccc(Cl)cc1 [PARACHLOROPHENOL    Therap cat: topical antibacterial] | -1.14 ± 1.1 |
| C=C(C)[C@@H]1[C@H]2OC(=O)[C@@H]1[C@]1(O)C[C@H]3O[C@]34C(=O)O[C@H]2[C@]14C [Prestw-652] | -0.136 ± 1.4 |
| CC(=O)OCC(=O)[C@H]1CC[C@H]2[C@@H]3CC[C@H]4C[C@H](O)CC[C@]4(C)[C@H]3C(=O)C[C@]12C [Prestw-1001] | -0.397 ± 0.32 |
| NC(=O)C[S+]([O-])C(c1ccccc1)c1ccccc1 (stereo not drawn) [Prestw-1147] | 0.1 ± 1.6 |
| CN1CCN(C(=O)OC2c3nccnc3C(=O)N2c2ccc(Cl)cn2)CC1 (stereo not drawn) [Prestw-1367] | 0.282 ± 1.3 |
| CCN1C[C@]2(COC)[C@H](O)C[C@H](OC)[C@]34C1[C@H]([C@H](OC)[C@H]23)[C@]1(OC(C)=O)[C@H]2[C@@H](OC(=O)c3ccccc3)[C@](O)(C[C@H]24)[C@@H](OC)[C@@H]1O | 0.298 ± 1.3 |
| Clc1ccc(C(OCCN2CCCCC2)c2ccccc2)cc1 (stereo not drawn) [Prestw-793] | -1.63 ± 0.19 |
| C[C@@H](CO)NC(=O)[C@@H]1C=C2c3cccc4[nH]cc(c34)C[C@H]2N(C)C1 | -0.0849 ± 2.1 |
| CC(Cc1ccccc1)NCCC(c1ccccc1)c1ccccc1 (stereo not drawn) [Prestw-560] | -1.5 ± 1.5 |
| C[C@]12CC[C@H](O)C[C@H]1CC[C@@H]1[C@@H]2C[C@@H](O)[C@]2(C)[C@@H](C3=CC(=O)OC3)CC[C@]12O [Prestw-883] | -3.14 ± 0.33 |
| Cc1cccc(C)c1NC1=NCCCS1 [Prestw-598] | 0.231 ± 0.31 |
| C=C1[C@@H]2CCC3[C@@](CC[C@@H]4[C@H](C(=O)O)C[C@@H](O[C@@H]5O[C@H](CO)[C@@H](OS(=O)(=O)O)[C@H](OS(=O)(=O)O)[C@H]5OC(=O)CC(C)C)C[C@@]34C)(C2)[C@@H]1O (stereo partly drawn) [Prestw-737] | -1.33 ± 0.028 |
| CC(=O)OCC1=C(C(=O)O)N2C(=O)[C@@H](NC(=O)CCC[C@@H](N)C(=O)O)[C@H]2SC1 | 0.615 ± 0.57 |

Three compounds out of the list, ordered by SMILES length, smallest number first.

| Structure (SMILES) | pThr231Tau/total Tau ratio Z-score |
| --- | --- |
| C=C(C)[C@@H]1[C@H]2OC(=O)[C@@H]1[C@]1(O)C[C@H]3O[C@]34C(=O)O[C@H]2[C@]14C [Prestw-652] | -0.136 ± 1.4 |
| CC(=O)OCC(=O)[C@H]1CC[C@H]2[C@@H]3CC[C@H]4C[C@H](O)CC[C@]4(C)[C@H]3C(=O)C[C@]12C [Prestw-1001] | -0.397 ± 0.32 |
| C[C@]12CC[C@H](O)C[C@H]1CC[C@@H]1[C@@H]2C[C@@H](O)[C@]2(C)[C@@H](C3=CC(=O)OC3)CC[C@]12O [Prestw-883] | -3.14 ± 0.33 |
